Source: PubChem BioAssay AID1053208 (Peter MacCallum Cancer Centre, 2014)
Shown is an unselected part of about 17,000 reagents. 788 of all reagents (4.7%) were called active. 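Calls rest on z-score classes alone; an extra cut-off of viability at most 70% of control was not applied to them.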 Entries without a mark were called inactive. The numbers tell different reagents against one gene apart. A reagent listed more than once was tested more than once; the source does not tell the runs apart. Further read-outs or replicates are left out here. No sequences are given here.

Assay: 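Synthetic lethal interactions between gene loss and doxorubicin in osteosarcoma cells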 (primary screen)
Cell system: mouse osteosarcoma cells, early-passage culture from an engineered mouse model of fibroblastic bone tumour
Knock-down reagent: siRNA pool against mouse genes, 40 nM
Timing: about 120 h (48 h before drug, then 72 h with drug)
Challenge: doxorubicin 100 nM for 72 h, roughly 30-40% inhibitory dose
Detection: 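Luminescent ATP signal taken as viability with or without 100 nM doxorubicin for 72 h; mean of two wells set against non-targeting siRNA and turned into robust z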
Reading the numbers: viability z-score with doxorubicin: higher = more viable cells under doxorubicin; viability z-score without drug: higher = more viable cells with knock-down alone
Active means: 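a pool counts as active when its viability z-score with doxorubicin is -2 or below and its z-score without drug lies between -2 and 2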

| gene knocked down | reagent | combined z-score class | viability z-score with doxorubicin | viability z-score without drug |
| --- | --- | --- | --- | --- |
| Il19 (interleukin 19) | 1 | no change with or without drug | 0.56 | -0.17 |
| Atl1 (atlastin GTPase 1) | 1 | no change with or without drug | 1.35 | 0.51 |
| Gabrr1 (gamma-aminobutyric acid type A receptor subunit rho 1) | 1 | no change with or without drug | 1.24 | 0.17 |
| Nedd8 | 1 | no change with or without drug | 0.67 | -1.18 |
| A730045E13Rik (RIKEN cDNA A730045E13 gene) | 1 | no change with or without drug | -0.45 | -0.34 |
| Dema1 (DPM1 ER membrane anchor 1) | 1 | no change with or without drug | 0.22 | -0.51 |
| Zfp553 (zinc finger protein 553) | 1 | no change with or without drug | 0.45 | 0.34 |
| Ahi1 (Abelson helper integration site 1) | 1 | no change with or without drug | 0.34 | -0.17 |
| Slc35e2 | 1 | no change with or without drug | -0.22 | -0.84 |
| Thumpd1 (THUMP domain containing 1) | 1 | no change with or without drug | 0.67 | -1.18 |
| Aasdh (aminoadipate-semialdehyde dehydrogenase) | 1 | no change with or without drug | 0.34 | -0.84 |
| Or8g18 (olfactory receptor family 8 subfamily G member 18) | 1 | no change with or without drug | -1.24 | -1.01 |
| Igf2bp3 (insulin-like growth factor 2 mRNA binding protein 3) | 1 | no change with or without drug | -0.22 | 0 |
| Cyp21a1 (cytochrome P450, family 21, subfamily a, polypeptide 1) | 1 | no change with or without drug | -0.11 | 1.85 |
| Nuf2 (NUF2, NDC80 kinetochore complex component) | 1 | low cell count with doxorubicin only (active) | -3.04 | -1.52 |
| Tmod4 (tropomodulin 4) | 1 | no change with or without drug | -0.67 | 0.17 |
| Eif5a (eukaryotic translation initiation factor 5A) | 1 | high cell count without drug only | 0 | 2.87 |
| G6pc1 (glucose-6-phosphatase catalytic subunit 1) | 1 | low cell count with doxorubicin only (active) | -2.14 | 0.34 |
| Abhd6 (abhydrolase domain containing 6) | 1 | no change with or without drug | 0.67 | -0.17 |
| Klk10 (kallikrein related-peptidase 10) | 1 | no change with or without drug | -0.79 | 0 |
| Dner (delta/notch-like EGF repeat containing) | 1 | no change with or without drug | 0.9 | 0.34 |
| Vmn1r25 (vomeronasal 1 receptor 25) | 1 | low cell count with doxorubicin only (active) | -2.02 | 0.17 |
| Olig3 (oligodendrocyte transcription factor 3) | 1 | no change with or without drug | 1.46 | 1.85 |
| Csnk1a1 (casein kinase 1, alpha 1) | 1 | no change with or without drug | 0 | -0.17 |
| Arg1 (arginase, liver) | 1 | no change with or without drug | -0.34 | 0.34 |
| Plxna2 (plexin A2) | 1 | no change with or without drug | 0.45 | -0.17 |
| Arap1 (ArfGAP with RhoGAP domain, ankyrin repeat and PH domain 1) | 1 | low cell count without drug only | -1.57 | -2.87 |
| Spata31d1d (spermatogenesis associated 31 subfamily D, member 1D) | 1 | low cell count without drug only | 0 | -2.19 |
| Ptp4a1 (protein tyrosine phosphatase 4a1) | 1 | high cell count with and without drug | 2.02 | 2.7 |
| Ggcx (gamma-glutamyl carboxylase) | 1 | no change with or without drug | -0.67 | -0.67 |
| Stk11ip (serine/threonine kinase 11 interacting protein) | 1 | no change with or without drug | -0.67 | 0.67 |
| Pla2g2c (phospholipase A2, group IIC) | 1 | no change with or without drug | -0.45 | -0.34 |
| Enpep (glutamyl aminopeptidase) | 1 | no change with or without drug | 0.22 | 0.84 |
| Uhmk1 (U2AF homology motif (UHM) kinase 1) | 1 | low cell count with doxorubicin only (active) | -2.81 | 0.34 |
| Snx6 (sorting nexin 6) | 1 | no change with or without drug | 0 | 0.67 |
| Ccr10 (C-C motif chemokine receptor 10) | 1 | no change with or without drug | -0.22 | -0.67 |
| St8sia1 (ST8 alpha-N-acetyl-neuraminide alpha-2,8-sialyltransferase 1) | 1 | no change with or without drug | 0.22 | 0.51 |
| St8sia1 (ST8 alpha-N-acetyl-neuraminide alpha-2,8-sialyltransferase 1) | 2 | no change with or without drug | -1.24 | -1.18 |
| Unkl (unkempt family like zinc finger) | 1 | high cell count without drug only | 1.35 | 2.53 |
| Or52ad1 (olfactory receptor family 52 subfamily AD member 1) | 1 | low cell count with doxorubicin only (active) | -2.25 | -1.52 |
| Pcdhga1 (protocadherin gamma subfamily A, 1) | 1 | low cell count with doxorubicin only (active) | -2.02 | -0.51 |
| Xpot (exportin, tRNA (nuclear export receptor for tRNAs)) | 1 | no change with or without drug | -0.67 | 1.18 |
| Pak2 (p21 (RAC1) activated kinase 2) | 1 | no change with or without drug | 0.67 | 0.34 |
| Gbp5 (guanylate binding protein 5) | 1 | no change with or without drug | -1.01 | 0.17 |
| Pcdh15 (protocadherin 15) | 1 | no change with or without drug | 1.69 | 0.51 |
| Mgst3 (microsomal glutathione S-transferase 3) | 1 | no change with or without drug | -0.9 | 1.35 |
| Arhgef9 (CDC42 guanine nucleotide exchange factor 9) | 1 | no change with or without drug | 0.22 | 1.18 |
| Decr1 (2,4-dienoyl CoA reductase 1, mitochondrial) | 1 | no change with or without drug | 0.56 | -0.67 |
| Agk (acylglycerol kinase) | 1 | no change with or without drug | -1.35 | 0.17 |
| Agk (acylglycerol kinase) | 1 | no change with or without drug | -1.35 | -0.67 |

Part of the list above, reformatted.
gene knocked down | reagent | combined z-score class | viability z-score with doxorubicin | viability z-score without drug
St8sia1 (ST8 alpha-N-acetyl-neuraminide alpha-2,8-sialyltransferase 1) | 1 | no change with or without drug | 0.22 | 0.51
St8sia1 (ST8 alpha-N-acetyl-neuraminide alpha-2,8-sialyltransferase 1) | 2 | no change with or without drug | -1.24 | -1.18
Unkl (unkempt family like zinc finger) | 1 | high cell count without drug only | 1.35 | 2.53
Or52ad1 (olfactory receptor family 52 subfamily AD member 1) | 1 | low cell count with doxorubicin only (active) | -2.25 | -1.52
